In paper PMC4260354:
Results are given in words; binding and its absence hold for the method and conditions named. In cells and extracts the contact can be indirect. These calls come from enrichment with a bait or labelling near it, and not all partners need be listed. Sequences can lack the tags named with a protein.

target: T1, SUVR2-Flag (Arabidopsis) (UniProt Q9FNC7); experiment: affinity purification with mass spectrometry; protein extracts of flower tissue of transgenic plants; anti-Flag M1 agarose, eluted with 3x Flag peptides, SDS-PAGE, silver staining, in-gel trypsin digestion, mass spectrometry; wild-type control
T1 sequence: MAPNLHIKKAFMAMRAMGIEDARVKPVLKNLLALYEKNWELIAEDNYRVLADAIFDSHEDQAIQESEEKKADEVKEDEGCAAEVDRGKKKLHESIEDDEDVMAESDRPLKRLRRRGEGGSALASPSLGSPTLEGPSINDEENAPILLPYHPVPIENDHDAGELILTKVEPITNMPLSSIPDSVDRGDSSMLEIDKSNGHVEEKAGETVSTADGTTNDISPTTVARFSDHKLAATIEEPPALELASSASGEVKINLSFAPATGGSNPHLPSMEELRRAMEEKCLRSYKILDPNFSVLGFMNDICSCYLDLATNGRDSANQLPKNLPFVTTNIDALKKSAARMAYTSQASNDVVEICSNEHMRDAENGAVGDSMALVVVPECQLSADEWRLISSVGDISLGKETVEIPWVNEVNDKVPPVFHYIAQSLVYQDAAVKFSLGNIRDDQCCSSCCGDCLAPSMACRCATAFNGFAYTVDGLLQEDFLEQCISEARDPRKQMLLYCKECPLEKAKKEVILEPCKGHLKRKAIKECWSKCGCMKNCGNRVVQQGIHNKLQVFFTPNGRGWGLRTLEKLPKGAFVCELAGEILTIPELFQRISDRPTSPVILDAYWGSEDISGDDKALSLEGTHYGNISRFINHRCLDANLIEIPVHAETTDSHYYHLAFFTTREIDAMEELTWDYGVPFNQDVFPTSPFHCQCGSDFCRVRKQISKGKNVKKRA

Row | Binder | binding
1 | SUVR1 (protein, UniProt Q946J2 1-734) MAPNLRIKKACDAMKLLGISETKTRAFLRKLLKTYENNWDFIEEDAYKVLLDAIFDEADAQSTEKNKKEEEKKKKEEEKKSRSVATSRGRRKAPEPLVQDEEDDMDEDEFPLKRRLRSRRGRASSSSSSSSSYNNEDLKTQPEEEDEDDGVTELPPLKRYVRRNGERGLAMTVYNNASPSSSSRLSMEPEEVPPMVLLPAHPMETKVSEASALVILNDEPNIDHKPVISDTGNCSAPMLEMGKSNIHVQEWDWETKDILNDTTAMDVSPSSAIGESSEHKVAAASVELASSTSGEAKICLSFAPATGETTNLHLPSMEDLRRAMEEKCLKSYKIVHPEFSVLGFMKDMCSCYIDLAKNSTSQLLETETVCDMSKAGDESGAVGISMPLVVVPECEISGDGWKAISNMKDITAGEENVEIPWVNEINEKVPSRFRYMPHSFVFQDAPVIFSLSSFSDEQSCSTSCIEDCLASEMSCNCAIGVDNGFAYTLDGLLKEEFLEARISEARDQRKQVLRFCEECPLERAKKVEILEPCKGHLKRGAIKECWFKCGCTKRCGNRVVQRGMHNKLQVFFTPNGKGWGLRTLEKLPKGAFICEYIGEILTIPELYQRSFEDKPTLPVILDAHWGSEERLEGDKALCLDGMFYGNISRFLNHRCLDANLIEIPVQVETPDQHYYHLAFFTTRDIEAMEELAWDYGIDFNDNDSLMKPFDCLCGSRFCRNKKRSTKTMQILNKA | binds
2 | CHR19/ETL1 (protein, UniProt Q9ZUL5 1-763) MKRDFDEISEEEWSQHSFNASRVLKRPRTPKKTRAATNPTPSIESFAFRRPSTAMTIESNSSDGDCVEIEDLGDSDSDVKIVNGEDLLLEDEEEVEETKVVMRAARVGRRFVIEDEEASDDDDDEAESSASEDEFGGGGGGSGGRRGEDEDVVGKALQKCAKISADLRKELYGTSSGVTDRYSEVETSTVRIVTQNDIDDACKAEDSDFQPILKPYQLVGVNFLLLLYKKGIEGAILADEMGLGKTIQAITYLTLLSRLNNDPGPHLVVCPASVLENWERELRKWCPSFTVLQYHGAARAAYSRELNSLSKAGKPPPFNVLLVCYSLFERHSEQQKDDRKVLKRWRWSCVLMDEAHALKDKNSYRWKNLMSVARNANQRLMLTGTPLQNDLHELWSLLEFMLPDIFTTENVDLKKLLNAEDTELITRMKSILGPFILRRLKSDVMQQLVPKIQRVEYVLMERKQEDAYKEAIEEYRAASQARLVKLSSKSLNSLAKALPKRQISNYFTQFRKIANHPLLIRRIYSDEDVIRIARKLHPIGAFGFECSLDRVIEEVKGFNDFRIHQLLFQYGVNDTKGTLSDKHVMLSAKCRTLAELLPSMKKSGHRVLIFSQWTSMLDILEWTLDVIGVTYRRLDGSTQVTDRQTIVDTFNNDKSIFACLLSTRAGGQGLNLTGADTVIIHDMDFNPQIDRQAEDRCHRIGQTKPVTIFRLVTKSTVDENIYEIAKRKLVLDAAVLESGVHVDDNGDTPEKTMGEILASLLMG | binds
3 | CHR27 (protein, UniProt Q9LHE4 1-1047) MDSAIEISSGSDSDDEVPPQPVWPQTRTRMDPTWLSRRPLPTVDSHARAEHTNQAPPNGASSDTSRPGVSKPFTGNGNTVNSRISSGSGADYVRLSSEQALKRTLPPSFNSPPLPARSGTNNISNASGSRVGVDYERPLSQQALKRTLPPSFNPPPLPSRSGTNNIRNAGGSRFGADYSHPAVSAVGNKSTFGDHYSGAHAEIGIQRGVNGVRILPPSLTHGTSASVLHHAGSSDPMHRFGGGEDRNPDNDERLVYQAALQVLNQPMTESDLPPGTLSVPLMRHQKIALAWMFQKETSSFNCPGGILADDQGLGKTVSTIALILKQKIVSQLKSESSCKQETEALVLDADDESDNAKHESGSHVKPELKVSSNSETSVLSACGNDENDSSDMEKAEDEEANSSTRAFQWKRPAAGTLIVCPASVVRQWARELDEKVSEESKLSVLVYHGSNRTKDPNELAEYDVVVTTYAIVTNEAPNKFLVDEDENDEKNTDRYGLASGFSNNKKRKVVVGASKKSKRRGRKSTNDTSSEPDCGPLGKVGWFRIVLDEAQTIKNYRTQMARSCCTLRAKRRWCLSGTPIQNTIDDLYSYFRFLRYDPYAVYKSFYSTIKVPISRNSCQGYKKLQAVLRAIMLRRTKGTLLDGKPIINLPPKVVNLSQVDFSVAERSFYKKLEADSRSQFKAYADAGTLSQNYANILLLLLRLRQACDHPQLVKRYNSDPVGKVSEAAVRRLPREARSRLINRLESSSAICYECNEPPEKPVVTLCGHIFCYECVLEYITGDENTCPVPRCKQQLARDVVFSESSLRNCTSDDSGCSSSHDNGLDRSVFQKRDFCSSKIKAVLDILQSLSQPDSPNSAQHGQMPSSSRPYDDDDVTIVEPMRLHSSSPSQGAVKTIIFSQWTGMLDLVELRILESGIEFRRLDGTMSLAARDRAVKEFSKKPDVKVMLMSLKAGNLGLNMVAACHVILLDLWWNPTTEDQAIDRAHRIGQTRPVTVTRITIKDTVEDRILKLQEEKRTMVASAFGEEHGGSSATRLTVDDLKYLFMV | binds
4 | CHR28 (protein, UniProt Q94BR5 1-981) MDSAIDISSDSDVEIQETRTRPQHPPRIAEGSHRRDLSTLRPHFLSGSSSGANGHTKTGLTNLDSRNGFESKPLPRAEHHTHIPGNGSIVTSRIPNISVGDYEKFSSQQAFKRTHPPTFSRPPFPPRPDIGTSNGNASHFRGGAHDDLGMGRVTNGTRILPPSVAHGTSASPSHFNGLSDPMHRNGIGEERNSENDERLIYQAALQELNQPKSEVDLPAGLLSVPLMKHQKIALAWMFQKETNSLHCMGGILADDQGLGKTVSTIALILKQMHEAKLKSKNSGNQEAEALDLDADDESENAFEKPESKASNGSGVNGDSGIKKAKGEEASTSTRKFNRKRPAAGTLIVCPASVVRQWARELDEKVTDEAKLSVLIYHGGNRTKDPIELAKYDVVMTTYAIVSNEVPKQPLVDDDENDEKNSEKYGLASGFSINKKRKNVVGTTKKSKKKKGNNNAGDSSDPDSGTLAKVGWFRVVLDEAQTIKNHRTQVARACCGLRAKRRWCLSGTPIQNTIDDLYSYFRFLKYDPYAVYKSFCHQIKGPISRNSLQGYKKLQAVLRAIMLRRTKGTLLDGQPIINLPPKTINLSQVDFSVEERSFYVKLESDSRSQFKAYAAAGTLNQNYANILLMLLRLRQACDHPQLVKRYNSDSVGKVSEEAVKKLPKEDLVSLLSRLESSPICCVCHDPPEDPVVTLCGHIFCYQCVSDYITGDEDTCPAPRCREQLAHDVVFSKSTLRSCVADDLGCSSSEDNSHDKSVFQNGEFSSSKIKAVLDILQSLSNQGTSNSTQNGQMASSSQQPNDDDDDDDDDVTIVEKTSLKSTPSNGGPIKTIIFSQWTGMLDLVELSLIENSIEFRRLDGTMSLIARDRAVKEFSNDPDVKVMIMSLKAGNLGLNMIAACHVILLDLWWNPTTEDQAIDRAHRIGQTRPVTVTRITIKNTVEDRILALQEEKRKMVASAFGEDHGGSSATRLTVDDLKYLFMV | binds
